Source: patent US7982030B2, “Synthesis of selenium-derivatized nucleosides, nucleotides, phosphoramidites, triphosphates and nucleic acids” (Georgia State University Research Foundation, Inc., priority 2001, dated 2011)
Some of these results come from one statement about several compounds together. [2'-SeMe] = uridine carrying a 2'-methylseleno group instead of 2'-OH; d = 2'-deoxy (DNA)

Assay: duplex formation / melting temperature of palindromic Se-DNA oligonucleotides
Assay type: physicochemical
Settings: palindromic sequences form duplexes at room temperature

5′-GCGTAUSeACGC-3′ (SEQ ID NO: 2) (DNA GCGTAUACGC; sugars from the 5' end d5 [2'-SeMe]1 d4, backbone and methylation of C not given here) [decamer, DNA decamer containing 2′-methylseleno-uridine]
melting temperature of duplex: higher than 40 °C
